Test results from PubChem BioAssay AID248 (DTP/NCI, 2004).
The list shows only some results of the screen, not a fair sample: it is rich in T/C values a quarter to a half above the control, in often repeated tests (any T/C) and in doses without a T/C. Other doses and runs of a compound stand elsewhere. T/C gives the treated animals as a percentage of the vehicle group. Some entries give survivors of the animals treated and no T/C: the source holds a T/C of zero for them, seemingly a mark for toxic or unscored doses. Some doses without a T/C left all or most animals alive at the check, yet need not have been tolerated: the source hardly ever lists a survival T/C far under the control, and the zero likely stands for such cases as well. Survivors were counted at the toxicity check, usually on the fifth day, unless a day is given; later deaths do not show. Schedule codes are those of the source, read here as Q, the interval in days (D) or hours (H), X, the number of doses. Some structures stand for samples that the source files as different forms (salt, stereo form or complex); doses refer to the form tested. Some entries were tested several times; the values are given in rising order. Where survival is the endpoint, the PubChem record calls one and a half times the control and up active, and a quarter to a half above the control has no call in these data; cut-offs in other NCI protocols can differ. Some schedule codes hold Z or #, which are not explained here. Some T/C values are followed by the survivors on the day toxicity was checked, most often the fifth; where none is given, no animal had died by that day.

Tested on: L1210 leukemia ip in BDF1 mice, survival T/C
Assay: NCI In Vivo Anticancer Drug Screen. Data for tumor model L1210 Leukemia (intraperitoneal) in B6D2F1 (BDF1) mice
Conditions: higher T/C = longer survival
[1] = T/C endpoint: mean survival time, dose: 32.0 mg/kg/injection, schedule: Q01DX009 (ip), vehicle: saline
[2] = T/C endpoint: mean survival time, dose: 75.0 mg/kg/injection, schedule: Q01DX001 (ip), vehicle: saline
[3] = T/C endpoint: mean survival time, dose: 150.0 mg/kg/injection, schedule: Q01DX001 (ip), vehicle: saline

In the case of `ClCCN(CCCl)c1ccc(CCCCN2CCOCC2)cc1`, the survivor count (T/C endpoint: median survival time, dose: 100.0 mg/kg/injection, schedule: Q01DX009 (ip), vehicle: Klucel (hydroxypropylcellulose) (HPC)) is reported as 0 of 6, the survivor count (T/C endpoint: median survival time, dose: 200.0 mg/kg/injection, schedule: Q01DX009 (ip), vehicle: Klucel (hydroxypropylcellulose) (HPC)) is reported as 0 of 6 and the survivor count (T/C endpoint: median survival time, dose: 400.0 mg/kg/injection, schedule: Q01DX009 (ip), vehicle: Klucel (hydroxypropylcellulose) (HPC)) is reported as 0 of 6.
In the case of `O=C1NC2(C(=O)O1)C1CC3CC(C1)CC2C3` (stereo not given), the survivor count (T/C endpoint: mean survival time, dose: 100.0 mg/kg/injection, schedule: Q01DX009 (ip), vehicle: alcohol) is reported as 3 of 6, the survivor count (T/C endpoint: mean survival time, dose: 200.0 mg/kg/injection, schedule: Q01DX009 (ip), vehicle: alcohol) is reported as 1 of 6 and the survivor count (T/C endpoint: mean survival time, dose: 400.0 mg/kg/injection, schedule: Q01DX009 (ip), vehicle: alcohol) is reported as 1 of 6.
With `NC(=S)c1nn(C2OC(CO)C(O)C2O)c2ncnc(N)c12` (stereo not given) the T/C (T/C endpoint: mean survival time, dose: 1.56 mg/kg/injection, schedule: Q01DX009 (ip), vehicle: saline) was 138 and 143 % of control, the T/C (T/C endpoint: mean survival time, dose: 3.12 mg/kg/injection, schedule: Q01DX009 (ip), vehicle: saline) was 129 % of control and the survivor count (T/C endpoint: mean survival time, dose: 12.5 mg/kg/injection, schedule: Q01DX005 (ip), vehicle: saline) was 2 of 6. For the same molecule, the survivor count (T/C endpoint: mean survival time, dose: 25.0 mg/kg/injection, schedule: Q01DX005 (ip), vehicle: saline) was 0 of 6.
In the case of `CN(C)[C@@H]1C(=O)C(C(=O)NCNc2nc(=S)c3[nH]cnc3[nH]2)=C(O)[C@@]2(O)C(=O)C3=C(O)c4c(O)cccc4[C@@](C)(O)[C@H]3C[C@@H]12`, the T/C (T/C endpoint: mean survival time, dose: 25.0 mg/kg/injection, schedule: Q01DX Z (ip), vehicle: carboxymethylcellulose (CMC)) is reported as 142 % of control [5 of 6 alive] and the T/C (T/C endpoint: mean survival time, dose: 50.0 mg/kg/injection, schedule: Q01DX Z (ip), vehicle: carboxymethylcellulose (CMC)) is reported as 134 % of control.
In the case of `Nc1nc[nH]c1-c1n[nH]c(=O)[nH]1`, the survivor count (T/C endpoint: mean survival time, dose: 400.0 mg/kg/injection, schedule: Q01DX001 (ip), vehicle: Klucel (hydroxypropylcellulose) (HPC)) is reported as 1 of 6.
`CCC(CC)N(C)C(C)(C)CO` was tested, and the survivor count (T/C endpoint: mean survival time, dose: 400.0 mg/kg/injection, schedule: Q04DX003 (ip), vehicle: saline sonified) was 1 of 6.
With `CCOC(=O)C1CC1(C)Br` (stereo not given) the survivor count (T/C endpoint: mean survival time, dose: 12.5 mg/kg/injection, schedule: Q04DX002 (ip), vehicle: saline with Tween-80) was 3 of 3, the survivor count (T/C endpoint: mean survival time, dose: 50.0 mg/kg/injection, schedule: Q04DX002 (ip), vehicle: saline with Tween-80) was 3 of 3 and the survivor count (T/C endpoint: mean survival time, dose: 200.0 mg/kg/injection, schedule: Q04DX002 (ip), vehicle: saline with Tween-80) was 3 of 3.
In the case of `NC(Cc1c[nH]c2c(N(CCCl)CCCl)cccc12)C(=O)O` (stereo not given), the T/C (T/C endpoint: mean survival time, dose: 10.0 mg/kg/injection, schedule: Q01DX Z (ip), vehicle: methylcellulose (MC)) is reported as 140 % of control and the T/C (T/C endpoint: mean survival time, dose: 20.0 mg/kg/injection, schedule: Q01DX Z (ip), vehicle: methylcellulose (MC)) is reported as 129 % of control.
For `CN=C(N)Nc1ccc(C(=O)Oc2ccc([N+](=O)[O-])cc2)cc1`, the survivor count (T/C endpoint: mean survival time, dose: 100.0 mg/kg/injection, schedule: Q01DX009 (ip), vehicle: water) was 5 of 6, the survivor count (T/C endpoint: mean survival time, dose: 200.0 mg/kg/injection, schedule: Q01DX009 (ip), vehicle: water) was 2 of 6 and the survivor count (T/C endpoint: mean survival time, dose: 400.0 mg/kg/injection, schedule: Q01DX009 (ip), vehicle: water) was 0 of 6.
`CN(C)CCCN1c2ccccc2Sc2ccc(Cl)cc21` was tested, and the T/C (T/C endpoint: mean survival time, dose: 6.25 mg/kg/injection, schedule: Q01DX009 (ip), vehicle: saline) was 127 % of control [5 of 6 alive], the survivor count (T/C endpoint: mean survival time, dose: 6.25 mg/kg/injection, schedule: Q04DX024 (oral), vehicle: saline) was 0 of 6 and the survivor count (T/C endpoint: mean survival time, dose: 12.5 mg/kg/injection, schedule: Q04DX024 (oral), vehicle: saline) was 0 of 6. For the same molecule, the T/C (T/C endpoint: mean survival time, dose: 16.0 mg/kg/injection, schedule: Q01DX009 (ip), vehicle: saline) was 126 % of control, the survivor count (T/C endpoint: mean survival time, dose: 25.0 mg/kg/injection, schedule: Q01DX009 (ip), vehicle: saline) was 6 of 6 and the T/C [1] was 134 % of control. For the same molecule, the survivor count [1] was 1 of 6, the T/C (T/C endpoint: mean survival time, dose: 37.5 mg/kg/injection, schedule: Q01DX001 (ip), vehicle: saline) was 128 % of control and the survivor count (T/C endpoint: mean survival time, dose: 40.0 mg/kg/injection, schedule: Q01DX009 (ip), vehicle: saline) was 3 of 6. For the same molecule, the T/C (T/C endpoint: mean survival time, dose: 40.0 mg/kg/injection, schedule: Q04DX003 (ip), vehicle: saline) was 131 % of control, the survivor count (T/C endpoint: mean survival time, dose: 50.0 mg/kg/injection, schedule: Q01DX009 (ip), vehicle: saline) was 3 of 6 and the T/C (T/C endpoint: mean survival time, dose: 50.0 mg/kg/injection, schedule: Q04DX003 (ip), vehicle: saline) was 148 % of control. For the same molecule, the survivor count (T/C endpoint: mean survival time, dose: 60.0 mg/kg/injection, schedule: Q04DX003 (ip), vehicle: saline) was 5 of 6, the T/C [2] was 128 % of control and the survivor count [2] was 0 of 6. For the same molecule, the survivor count (T/C endpoint: mean survival time, dose: 75.0 mg/kg/injection, schedule: Q01DX009 (ip), vehicle: saline) was 4 of 6, the survivor count (T/C endpoint: mean survival time, dose: 80.0 mg/kg/injection, schedule: Q01DX009 (ip), vehicle: saline) was 0 of 6 and the survivor count (T/C endpoint: mean survival time, dose: 80.0 mg/kg/injection, schedule: Q04DX003 (ip), vehicle: saline) was 4 of 6. The survivor count (T/C endpoint: mean survival time, dose: 100.0 mg/kg/injection, schedule: Q01DX001 (ip), vehicle: saline) was 0 of 6, the survivor count (T/C endpoint: mean survival time, dose: 100.0 mg/kg/injection, schedule: Q01DX009 (ip), vehicle: saline) was 0 of 6 and the survivor count (T/C endpoint: mean survival time, dose: 100.0 mg/kg/injection, schedule: Q04DX003 (ip), vehicle: saline with Tween-80) was 3 of 6. The survivor count (T/C endpoint: mean survival time, dose: 100.0 mg/kg/injection, schedule: Q04DX003 (ip), vehicle: saline) was 2 of 4, the survivor count (T/C endpoint: mean survival time, dose: 115.0 mg/kg/injection, schedule: Q04DX003 (ip), vehicle: saline) was 0 of 6 and the survivor count (T/C endpoint: mean survival time, dose: 120.0 mg/kg/injection, schedule: Q01DX015 (ip), vehicle: saline) was 0 of 6. The survivor count (T/C endpoint: mean survival time, dose: 135.0 mg/kg/injection, schedule: Q01DX015 (ip), vehicle: saline) was 2 of 6, the T/C [3] was 131 % of control [5 of 6 alive] and the survivor count [3] was 0 of 6. For the same molecule, the survivor count (T/C endpoint: mean survival time, dose: 160.0 mg/kg/injection, schedule: Q01DX009 (ip), vehicle: saline) was 0 of 6, the survivor count (T/C endpoint: mean survival time, dose: 170.0 mg/kg/injection, schedule: Q04DX003 (ip), vehicle: saline) was 0 of 6 and the survivor count (T/C endpoint: mean survival time, dose: 200.0 mg/kg/injection, schedule: Q01DX001 (ip), vehicle: saline) was 0 of 6. The survivor count (T/C endpoint: mean survival time, dose: 200.0 mg/kg/injection, schedule: Q01DX009 (ip), vehicle: saline) was 0 of 6, the survivor count (T/C endpoint: mean survival time, dose: 200.0 mg/kg/injection, schedule: Q01DX015 (ip), vehicle: saline) was 0 of 6 and the survivor count (T/C endpoint: mean survival time, dose: 200.0 mg/kg/injection, schedule: Q04DX003 (ip), vehicle: saline with Tween-80) was 1 of 6. For the same molecule, the survivor count (T/C endpoint: mean survival time, dose: 200.0 mg/kg/injection, schedule: Q04DX003 (ip), vehicle: saline) was 2 of 6, the survivor count (T/C endpoint: mean survival time, dose: 240.0 mg/kg/injection, schedule: Q01DX015 (ip), vehicle: saline) was 0 of 6 and the survivor count (T/C endpoint: mean survival time, dose: 300.0 mg/kg/injection, schedule: Q01DX001 (ip), vehicle: saline) was 0 of 6 and 1 of 6. The survivor count (T/C endpoint: mean survival time, dose: 320.0 mg/kg/injection, schedule: Q01DX009 (ip), vehicle: saline) was 0 of 6, the survivor count (T/C endpoint: mean survival time, dose: 400.0 mg/kg/injection, schedule: Q01DX001 (ip), vehicle: saline) was 0 of 6 and the survivor count (T/C endpoint: mean survival time, dose: 400.0 mg/kg/injection, schedule: Q01DX009 (ip), vehicle: saline) was 0 of 6. The survivor count (T/C endpoint: mean survival time, dose: 400.0 mg/kg/injection, schedule: Q04DX003 (ip), vehicle: saline with Tween-80) was 0 of 6 and the survivor count (T/C endpoint: mean survival time, dose: 480.0 mg/kg/injection, schedule: Q01DX015 (ip), vehicle: saline) was 0 of 6.
With `c1ccc(CC2NCCc3c2[nH]c2ccccc32)cc1` (stereo not given) the survivor count (T/C endpoint: mean survival time, dose: 50.0 mg/kg/injection, schedule: Q04DX003 (ip), vehicle: Klucel (hydroxypropylcellulose) (HPC)) was 4 of 4 and the survivor count (T/C endpoint: mean survival time, dose: 400.0 mg/kg/injection, schedule: Q01DX009 (ip), vehicle: Klucel (hydroxypropylcellulose) (HPC)) was 2 of 6.
